“And” between values parts separate entries of the source, which are not always exact repeats. Equal entries are not always repeated.
Test: THCA-glucuronide liberation by alkaline hydrolysis with NaOH, quantitated as THCA by GC/MS/MS

With `CCCCCc1cc(O)c2c(c1)OC(C)(C)[C@H]1CCC(C(=O)O[C@@H]3O[C@H](C(=O)O)[C@@H](O)[C@H](O)[C@H]3O)=C[C@H]21` [THCA-glucuronide] as the compound, how does the “Recovered THCA, Average” value (n = 3, spiked at 66 pg/mL equivalent THCA) read?
Its value is 62.64 pg/mL.

What about the “Recovered THCA” value (single replicates, oral fluid spiked with THCA-glucuronide at 66 pg/mL equivalent THCA, alkaline hydrolysis) of the same compound?
Its value is 64.47 pg/mL and 70.80 pg/mL and 52.65 pg/mL.
